Source: ChEMBL document CHEMBL2163313, “Shape-based reprofiling of FDA-approved drugs for the H₁ histamine receptor” (J Med Chem, 2012)

By UniProt entry, the sequences of proteins in these tests, tags left out.
UniProt P35367, whole entry: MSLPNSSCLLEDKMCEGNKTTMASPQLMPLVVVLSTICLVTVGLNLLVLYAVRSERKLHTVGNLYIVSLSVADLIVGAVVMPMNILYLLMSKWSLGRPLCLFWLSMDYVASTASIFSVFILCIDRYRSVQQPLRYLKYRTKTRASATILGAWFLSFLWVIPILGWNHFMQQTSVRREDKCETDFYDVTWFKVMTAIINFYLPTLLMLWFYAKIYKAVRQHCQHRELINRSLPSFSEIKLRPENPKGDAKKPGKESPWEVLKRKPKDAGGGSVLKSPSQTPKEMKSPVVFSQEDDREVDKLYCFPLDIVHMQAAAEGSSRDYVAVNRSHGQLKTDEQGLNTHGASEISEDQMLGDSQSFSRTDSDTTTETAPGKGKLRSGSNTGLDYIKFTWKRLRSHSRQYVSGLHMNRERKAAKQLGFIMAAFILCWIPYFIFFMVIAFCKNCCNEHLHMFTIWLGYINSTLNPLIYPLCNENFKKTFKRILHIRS

Biological target: Histamine H1 receptor (Homo sapiens, UniProt P35367)
Test: Antagonist activity at H1 receptor in human HeLa cells assessed as inhibition of histamine-induced Ca2+ release by using fura-2AM-based fluorescence assay
Assay type: functional, cell-based

`CN(C)CC/C=C1/c2ccccc2Sc2ccc(Cl)cc21` [CHLORPROTHIXENE] showed an IC50 (read-out: IC50) of 1 nM and an IC50 (read-out: pIC50 (converted)) of 871 nM.
